Test results reported in patent US20190307783A1, “USE OF ANTIVIRALS TO INHIBIT PROTOZOAN VIRUSES” (priority 2016, published 2019).
Some results were stated once for a whole list of compounds, not compound by compound.

Tested on: L. guyanensis (LgyLRV1+)
Experiment: Drug-inhibition test: growth of LgyLRV1+ parasites
Assay type: cell-based, Leishmania guyanensis
Details: screen, concentration tested as in Table 3
Description: These compounds were examined for their ability to inhibit the growth of LgyLRV1^+ and virus levels by LRV1 capsid flow cytometry.
Most studies were performed using luciferase-expressing transfectants of L. guyanensis (MHOM/BR/78/M4147) described previously [LRV1^+ LgyM4147/SSU:IR2SAT-LUC(b)c3 and LRV^−LgyM4147/pX63HYG/SSU:IR2SAT-LUC(b)c4] (54); these lines are termed LgyLRV1^+ and LgyLRV1^−, respectively. Two strains of LRV1^+L. braziliensis were examined: LEM2780 (MHOM/BO/90/CS) and LEM3874 (MHOM/BO/99/IMT252 no. 3) (12). Parasites were grown in Schneider's media (Sigma Aldrich, St. Louis, Mo., USA) prepared according to the supplier's instructions with pH adjusted to 6.5 and supplemented with 0.76 mM hemin, 2 μg/mL biopterin, 50 U/mL penicillin, 50 μg/mL streptomycin, and 10% (vol/vol) heat-inactivated FBS. Cell concentrations were determined using a Coulter Counter ([…], Indianapolis, Ind., USA).
Parasites were inoculated at 2×10^5 cells/mL into Schneider's media lacking supplemental adenine.

Row | Compound | Inhibition of L. guyanensis growth
1 | Oc1ncnc2[nH]ncc12 [Allopurinol] | more than 10 fold
2 | COc1c(C)c2c(c(O)c1C/C=C(\C)CCC(=O)O)C(=O)OC2 [Mycophenolic acid] | more than 10 fold
